Test results published in the supplement of paper PMC6411743.
± gives the standard deviation of the averaged measurements. The entries are a selection whose mix differs from that of the whole data set.

Sequences of proteins named here, by UniProt entry; tags and fusion partners are left off. A change or cut given only in a name is not applied to a line headed by its entry.
UniProt O43292: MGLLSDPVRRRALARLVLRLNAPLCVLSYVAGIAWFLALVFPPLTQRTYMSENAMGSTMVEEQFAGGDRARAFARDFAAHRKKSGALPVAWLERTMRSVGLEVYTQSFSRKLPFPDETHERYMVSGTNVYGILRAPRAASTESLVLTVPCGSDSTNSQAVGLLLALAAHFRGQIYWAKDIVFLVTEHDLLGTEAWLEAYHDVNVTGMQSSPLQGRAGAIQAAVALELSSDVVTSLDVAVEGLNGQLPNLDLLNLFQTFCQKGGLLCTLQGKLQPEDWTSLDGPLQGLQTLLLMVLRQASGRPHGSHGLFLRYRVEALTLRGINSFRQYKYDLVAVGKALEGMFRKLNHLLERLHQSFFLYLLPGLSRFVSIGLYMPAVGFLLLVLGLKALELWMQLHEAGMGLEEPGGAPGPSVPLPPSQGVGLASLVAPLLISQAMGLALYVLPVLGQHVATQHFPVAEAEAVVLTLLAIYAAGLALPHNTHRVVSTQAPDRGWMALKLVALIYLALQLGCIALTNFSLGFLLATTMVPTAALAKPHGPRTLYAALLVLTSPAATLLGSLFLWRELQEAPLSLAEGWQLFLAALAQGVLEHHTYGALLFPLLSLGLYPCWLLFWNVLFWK
UniProt Q8TAQ2, whole entry: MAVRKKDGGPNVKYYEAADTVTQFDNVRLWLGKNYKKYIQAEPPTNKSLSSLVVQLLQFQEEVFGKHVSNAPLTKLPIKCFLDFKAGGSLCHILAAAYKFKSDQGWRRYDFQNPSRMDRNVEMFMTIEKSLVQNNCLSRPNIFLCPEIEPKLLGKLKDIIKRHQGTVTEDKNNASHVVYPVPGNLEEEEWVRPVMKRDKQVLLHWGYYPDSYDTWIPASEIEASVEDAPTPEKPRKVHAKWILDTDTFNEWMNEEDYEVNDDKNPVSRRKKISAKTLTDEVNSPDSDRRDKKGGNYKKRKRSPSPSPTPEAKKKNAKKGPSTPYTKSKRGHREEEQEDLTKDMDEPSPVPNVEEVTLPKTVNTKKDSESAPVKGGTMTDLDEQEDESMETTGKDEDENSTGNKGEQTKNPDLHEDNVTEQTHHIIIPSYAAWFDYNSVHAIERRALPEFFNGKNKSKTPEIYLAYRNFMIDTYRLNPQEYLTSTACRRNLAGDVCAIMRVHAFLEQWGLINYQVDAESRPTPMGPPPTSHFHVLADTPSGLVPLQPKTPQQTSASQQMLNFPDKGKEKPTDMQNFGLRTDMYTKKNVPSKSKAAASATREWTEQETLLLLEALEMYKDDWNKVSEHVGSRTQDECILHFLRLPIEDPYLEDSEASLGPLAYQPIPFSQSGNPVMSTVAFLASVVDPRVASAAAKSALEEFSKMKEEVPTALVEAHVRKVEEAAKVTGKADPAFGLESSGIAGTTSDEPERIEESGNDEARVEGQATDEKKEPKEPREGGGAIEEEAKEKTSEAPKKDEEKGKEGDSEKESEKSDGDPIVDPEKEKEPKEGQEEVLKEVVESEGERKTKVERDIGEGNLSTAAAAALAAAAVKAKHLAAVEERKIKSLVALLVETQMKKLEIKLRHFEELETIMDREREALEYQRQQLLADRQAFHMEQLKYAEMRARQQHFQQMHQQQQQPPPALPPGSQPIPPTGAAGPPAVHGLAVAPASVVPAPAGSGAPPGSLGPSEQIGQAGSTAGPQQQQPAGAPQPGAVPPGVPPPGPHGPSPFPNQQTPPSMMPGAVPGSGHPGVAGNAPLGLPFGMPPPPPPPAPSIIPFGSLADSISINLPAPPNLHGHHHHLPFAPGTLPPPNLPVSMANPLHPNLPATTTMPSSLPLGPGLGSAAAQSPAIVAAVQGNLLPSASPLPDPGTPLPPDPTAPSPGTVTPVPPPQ
UniProt P29375: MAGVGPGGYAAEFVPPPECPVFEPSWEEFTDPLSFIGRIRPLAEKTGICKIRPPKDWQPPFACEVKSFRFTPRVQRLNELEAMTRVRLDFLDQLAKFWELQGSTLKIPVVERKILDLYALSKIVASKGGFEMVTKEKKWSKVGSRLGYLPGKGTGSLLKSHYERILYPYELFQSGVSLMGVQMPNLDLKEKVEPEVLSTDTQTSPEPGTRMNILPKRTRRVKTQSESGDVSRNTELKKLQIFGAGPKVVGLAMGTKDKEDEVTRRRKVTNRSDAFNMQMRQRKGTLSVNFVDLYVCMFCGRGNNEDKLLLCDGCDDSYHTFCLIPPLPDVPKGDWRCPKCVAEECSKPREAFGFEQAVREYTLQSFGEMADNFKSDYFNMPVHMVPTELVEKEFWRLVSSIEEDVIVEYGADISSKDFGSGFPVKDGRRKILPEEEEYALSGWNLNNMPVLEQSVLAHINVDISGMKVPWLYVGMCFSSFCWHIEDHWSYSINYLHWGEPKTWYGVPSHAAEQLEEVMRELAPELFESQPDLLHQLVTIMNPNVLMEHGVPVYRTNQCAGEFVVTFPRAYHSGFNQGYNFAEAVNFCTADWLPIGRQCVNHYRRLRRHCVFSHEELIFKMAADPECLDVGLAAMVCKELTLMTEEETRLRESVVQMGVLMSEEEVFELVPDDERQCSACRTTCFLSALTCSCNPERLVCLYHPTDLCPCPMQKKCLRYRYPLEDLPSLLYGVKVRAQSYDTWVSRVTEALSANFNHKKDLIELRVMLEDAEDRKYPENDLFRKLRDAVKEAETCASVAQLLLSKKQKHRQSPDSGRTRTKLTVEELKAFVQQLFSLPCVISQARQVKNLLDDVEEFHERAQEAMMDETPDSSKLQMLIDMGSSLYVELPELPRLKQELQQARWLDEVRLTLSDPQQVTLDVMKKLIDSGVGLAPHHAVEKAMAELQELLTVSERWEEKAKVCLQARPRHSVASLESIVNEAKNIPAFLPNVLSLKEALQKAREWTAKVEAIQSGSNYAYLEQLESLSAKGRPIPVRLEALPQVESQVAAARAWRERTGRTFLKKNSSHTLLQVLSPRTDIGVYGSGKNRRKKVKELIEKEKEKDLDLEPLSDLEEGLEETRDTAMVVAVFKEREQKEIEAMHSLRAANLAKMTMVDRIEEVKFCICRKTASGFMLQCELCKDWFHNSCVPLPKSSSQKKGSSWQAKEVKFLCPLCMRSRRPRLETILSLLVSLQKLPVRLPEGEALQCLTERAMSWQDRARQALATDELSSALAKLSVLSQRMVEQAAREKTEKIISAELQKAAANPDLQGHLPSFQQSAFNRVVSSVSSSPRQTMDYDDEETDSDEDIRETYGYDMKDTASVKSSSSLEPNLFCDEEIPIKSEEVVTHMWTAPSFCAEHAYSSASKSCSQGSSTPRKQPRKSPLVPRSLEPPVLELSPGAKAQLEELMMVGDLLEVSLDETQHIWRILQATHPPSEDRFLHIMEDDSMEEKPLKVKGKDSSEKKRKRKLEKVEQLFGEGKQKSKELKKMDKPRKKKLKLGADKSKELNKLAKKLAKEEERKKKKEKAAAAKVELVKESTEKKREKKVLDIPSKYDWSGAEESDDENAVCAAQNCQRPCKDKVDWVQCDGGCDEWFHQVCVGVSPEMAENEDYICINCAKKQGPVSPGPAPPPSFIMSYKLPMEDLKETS
UniProt P57764: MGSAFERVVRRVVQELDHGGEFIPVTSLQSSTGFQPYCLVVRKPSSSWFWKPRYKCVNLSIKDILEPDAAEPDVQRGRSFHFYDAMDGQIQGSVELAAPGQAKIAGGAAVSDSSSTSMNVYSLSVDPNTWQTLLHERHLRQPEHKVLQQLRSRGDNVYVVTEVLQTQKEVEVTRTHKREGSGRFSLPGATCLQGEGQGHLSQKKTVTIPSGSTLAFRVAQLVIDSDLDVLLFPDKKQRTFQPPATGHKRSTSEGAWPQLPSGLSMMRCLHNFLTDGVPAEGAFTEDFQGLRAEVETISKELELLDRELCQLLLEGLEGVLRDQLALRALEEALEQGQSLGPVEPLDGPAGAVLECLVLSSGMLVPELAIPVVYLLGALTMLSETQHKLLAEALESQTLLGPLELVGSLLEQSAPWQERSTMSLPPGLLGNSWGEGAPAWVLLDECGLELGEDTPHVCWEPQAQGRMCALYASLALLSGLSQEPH
UniProt Q9Y3C0: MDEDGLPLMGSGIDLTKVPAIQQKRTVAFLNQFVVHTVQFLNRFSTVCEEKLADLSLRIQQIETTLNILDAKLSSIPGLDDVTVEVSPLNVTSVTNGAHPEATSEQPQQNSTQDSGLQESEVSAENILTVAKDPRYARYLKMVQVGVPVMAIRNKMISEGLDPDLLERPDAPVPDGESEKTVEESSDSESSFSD
UniProt Q676U5: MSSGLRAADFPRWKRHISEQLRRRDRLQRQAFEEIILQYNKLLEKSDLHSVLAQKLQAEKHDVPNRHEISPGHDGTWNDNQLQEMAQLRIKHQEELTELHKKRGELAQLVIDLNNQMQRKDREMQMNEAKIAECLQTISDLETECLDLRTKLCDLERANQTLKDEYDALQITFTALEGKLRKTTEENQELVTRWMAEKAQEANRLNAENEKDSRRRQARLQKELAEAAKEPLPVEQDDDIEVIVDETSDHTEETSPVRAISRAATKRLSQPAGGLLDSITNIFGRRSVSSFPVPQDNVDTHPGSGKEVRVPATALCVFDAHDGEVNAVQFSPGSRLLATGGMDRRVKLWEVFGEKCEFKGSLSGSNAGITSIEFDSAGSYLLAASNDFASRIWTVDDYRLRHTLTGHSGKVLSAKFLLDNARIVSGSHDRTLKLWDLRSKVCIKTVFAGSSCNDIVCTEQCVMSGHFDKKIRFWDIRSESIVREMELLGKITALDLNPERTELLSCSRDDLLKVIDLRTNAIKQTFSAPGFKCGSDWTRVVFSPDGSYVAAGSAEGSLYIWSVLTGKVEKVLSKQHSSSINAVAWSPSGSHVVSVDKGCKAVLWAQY
UniProt O75387: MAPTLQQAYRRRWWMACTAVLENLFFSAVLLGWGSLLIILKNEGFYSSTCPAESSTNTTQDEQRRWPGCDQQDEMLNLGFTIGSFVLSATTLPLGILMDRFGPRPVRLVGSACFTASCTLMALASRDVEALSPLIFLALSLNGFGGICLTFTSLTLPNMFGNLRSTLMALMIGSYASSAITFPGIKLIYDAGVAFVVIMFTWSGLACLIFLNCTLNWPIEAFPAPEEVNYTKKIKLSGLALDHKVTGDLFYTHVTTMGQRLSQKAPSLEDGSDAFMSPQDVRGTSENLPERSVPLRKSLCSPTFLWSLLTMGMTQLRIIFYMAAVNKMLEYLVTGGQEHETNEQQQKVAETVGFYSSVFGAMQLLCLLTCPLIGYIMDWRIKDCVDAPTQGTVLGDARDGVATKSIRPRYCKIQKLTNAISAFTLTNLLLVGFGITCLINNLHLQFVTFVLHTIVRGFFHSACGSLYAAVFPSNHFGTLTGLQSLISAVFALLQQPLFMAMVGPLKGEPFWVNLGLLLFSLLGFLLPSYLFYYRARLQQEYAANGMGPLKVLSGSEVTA
UniProt Q15043: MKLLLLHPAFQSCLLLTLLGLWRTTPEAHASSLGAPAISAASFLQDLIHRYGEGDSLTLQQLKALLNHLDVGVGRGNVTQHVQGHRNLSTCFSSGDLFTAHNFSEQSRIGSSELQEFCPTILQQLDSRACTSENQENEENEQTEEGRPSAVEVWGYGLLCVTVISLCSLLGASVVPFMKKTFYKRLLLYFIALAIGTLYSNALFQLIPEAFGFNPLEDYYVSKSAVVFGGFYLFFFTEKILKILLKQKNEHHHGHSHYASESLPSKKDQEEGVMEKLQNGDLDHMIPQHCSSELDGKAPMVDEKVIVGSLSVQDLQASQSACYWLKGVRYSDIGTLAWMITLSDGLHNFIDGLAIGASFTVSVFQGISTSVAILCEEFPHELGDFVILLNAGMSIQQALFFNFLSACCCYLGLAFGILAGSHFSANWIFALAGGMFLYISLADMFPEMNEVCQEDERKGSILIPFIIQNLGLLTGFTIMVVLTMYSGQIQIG
UniProt Q9UQV4: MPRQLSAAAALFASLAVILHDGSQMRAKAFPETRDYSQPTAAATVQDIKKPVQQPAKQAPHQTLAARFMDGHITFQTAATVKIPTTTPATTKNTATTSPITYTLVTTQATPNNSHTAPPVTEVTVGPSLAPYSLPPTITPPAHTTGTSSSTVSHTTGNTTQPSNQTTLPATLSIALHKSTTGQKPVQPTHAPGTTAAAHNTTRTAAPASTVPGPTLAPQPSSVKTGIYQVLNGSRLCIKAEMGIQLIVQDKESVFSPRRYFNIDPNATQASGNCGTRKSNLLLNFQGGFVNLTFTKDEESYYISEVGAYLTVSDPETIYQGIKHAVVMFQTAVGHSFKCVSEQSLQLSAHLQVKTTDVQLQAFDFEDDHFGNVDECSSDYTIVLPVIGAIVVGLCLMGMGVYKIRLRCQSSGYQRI
UniProt Q15631: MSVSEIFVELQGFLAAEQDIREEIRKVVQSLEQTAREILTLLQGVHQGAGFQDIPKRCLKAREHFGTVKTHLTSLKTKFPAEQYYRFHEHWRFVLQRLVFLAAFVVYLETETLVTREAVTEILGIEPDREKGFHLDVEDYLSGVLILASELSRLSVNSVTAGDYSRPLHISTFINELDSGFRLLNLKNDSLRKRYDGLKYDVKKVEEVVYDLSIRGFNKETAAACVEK

Compound: Nc1ncnc2c1ncn2[C@@H]1O[C@H](COP(=O)(O)OP(=O)(O)NP(=O)(O)O)[C@@H](O)[C@H]1O [adenylyl imidodiphosphate]
Assay: NP40-soluble protein abundance relative to vehicle (solubility fold change) (ratio); higher = more soluble protein in presence of AMP-PNP
Summary of the method: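 Jurkat crude lysate (Dounce-homogenised) was treated with eight concentrations from 0.1 to 10 mM for 10 min at room temperature, then 3 min at 37 °C. It was solubilised with 0.8% NP40 and benzonase (60 min, 4 °C) and ultracentrifuged, and the supernatant was TMT-labelled for LC-MS/MS. Intensities were vsn-normalised, and the value is the fold change against the NP40-processed vehicle per replicate, from three independent experiments.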

E9PN10 and related entries (UniProt O00559)
NP40-soluble protein abundance (concentration: 1mM): 1 ± 0.016 | NP40-soluble protein abundance (concentration: 2mM): 1.07 ± 0.041 | NP40-soluble protein abundance (concentration: 4mM): 0.993 ± 0.01 | NP40-soluble protein abundance (concentration: 6mM): 1.02 ± 0.013 | NP40-soluble protein abundance (concentration: 8mM): 0.994 ± 0.059 | NP40-soluble protein abundance (concentration: 10mM): 1.04 ± 0.05

E9PPZ9 and related entries (UniProt O43292)
NP40-soluble protein abundance (concentration: 1mM): 0.995 ± 0.044 | NP40-soluble protein abundance (concentration: 2mM): 0.969 ± 0.039 | NP40-soluble protein abundance (concentration: 4mM): 1 ± 0.02 | NP40-soluble protein abundance (concentration: 6mM): 0.998 ± 0.1 | NP40-soluble protein abundance (concentration: 8mM): 1.01 ± 0.067 | NP40-soluble protein abundance (concentration: 10mM): 1.01 ± 0.047

E7ERS3 and related entries (UniProt Q86VM9)
NP40-soluble protein abundance (concentration: 1mM): 1.05 ± 0.038 | NP40-soluble protein abundance (concentration: 2mM): 1.17 ± 0.083 | NP40-soluble protein abundance (concentration: 4mM): 1.12 ± 0.018 | NP40-soluble protein abundance (concentration: 6mM): 1.17 ± 0.095 | NP40-soluble protein abundance (concentration: 8mM): 1.16 ± 0.074 | NP40-soluble protein abundance (concentration: 10mM): 1.26 ± 0.1

F8VXC8 and related entries (UniProt Q8TAQ2)
NP40-soluble protein abundance (concentration: 1mM): 1.03 ± 0.034 | NP40-soluble protein abundance (concentration: 2mM): 1.07 ± 0.04 | NP40-soluble protein abundance (concentration: 4mM): 1.04 ± 0.047 | NP40-soluble protein abundance (concentration: 6mM): 1.04 ± 0.1 | NP40-soluble protein abundance (concentration: 8mM): 1.04 ± 0.064 | NP40-soluble protein abundance (concentration: 10mM): 1.09 ± 0.1

F5H1F7 and related entries (UniProt P29375)
NP40-soluble protein abundance (concentration: 1mM): 1.01 ± 0.011 | NP40-soluble protein abundance (concentration: 2mM): 1 ± 0.017 | NP40-soluble protein abundance (concentration: 4mM): 1.03 ± 0.023 | NP40-soluble protein abundance (concentration: 6mM): 1.04 ± 0.023 | NP40-soluble protein abundance (concentration: 8mM): 1.06 ± 0.042 | NP40-soluble protein abundance (concentration: 10mM): 1.08 ± 0.05

E9PQR9 and related entries (UniProt P57764)
NP40-soluble protein abundance (concentration: 1mM): 0.975 ± 0.031 | NP40-soluble protein abundance (concentration: 2mM): 0.924 ± 0.059 | NP40-soluble protein abundance (concentration: 4mM): 0.971 ± 0.047 | NP40-soluble protein abundance (concentration: 6mM): 0.933 ± 0.059 | NP40-soluble protein abundance (concentration: 8mM): 0.942 ± 0.022 | NP40-soluble protein abundance (concentration: 10mM): 0.897 ± 0.07

F5GZ97 and related entries (UniProt Q9Y3C0)
NP40-soluble protein abundance (concentration: 1mM): 0.9847 ± 0.0098 | NP40-soluble protein abundance (concentration: 2mM): 1.04 ± 0.033 | NP40-soluble protein abundance (concentration: 4mM): 1.02 ± 0.033 | NP40-soluble protein abundance (concentration: 6mM): 1.02 ± 0.029 | NP40-soluble protein abundance (concentration: 8mM): 1.04 ± 0.014 | NP40-soluble protein abundance (concentration: 10mM): 1.1 ± 0.089

E7EVC7 and related entries (UniProt Q676U5)
NP40-soluble protein abundance (concentration: 1mM): 1.04 ± 0.032 | NP40-soluble protein abundance (concentration: 2mM): 1.07 ± 0.051 | NP40-soluble protein abundance (concentration: 4mM): 1.02 ± 0.019 | NP40-soluble protein abundance (concentration: 6mM): 0.984 ± 0.062 | NP40-soluble protein abundance (concentration: 8mM): 0.948 ± 0.062 | NP40-soluble protein abundance (concentration: 10mM): 0.983 ± 0.072

E9PJ68 and related entries (UniProt O75387)
NP40-soluble protein abundance (concentration: 1mM): 1.011 ± 0.0075 | NP40-soluble protein abundance (concentration: 2mM): 1.01 ± 0.018 | NP40-soluble protein abundance (concentration: 4mM): 1 ± 0.014 | NP40-soluble protein abundance (concentration: 6mM): 1.009 ± 0.0095 | NP40-soluble protein abundance (concentration: 8mM): 1.02 ± 0.012 | NP40-soluble protein abundance (concentration: 10mM): 1.08 ± 0.026

E5RJ40 and related entries (UniProt Q15043)
NP40-soluble protein abundance (concentration: 1mM): 1.02 ± 0.026 | NP40-soluble protein abundance (concentration: 2mM): 1.03 ± 0.019 | NP40-soluble protein abundance (concentration: 4mM): 0.997 ± 0.012 | NP40-soluble protein abundance (concentration: 6mM): 0.989 ± 0.021 | NP40-soluble protein abundance (concentration: 8mM): 0.979 ± 0.012 | NP40-soluble protein abundance (concentration: 10mM): 0.972 ± 0.018

E7ETP9 and related entries (UniProt Q9UQV4)
NP40-soluble protein abundance (concentration: 1mM): 0.99 ± 0.02 | NP40-soluble protein abundance (concentration: 2mM): 1.06 ± 0.073 | NP40-soluble protein abundance (concentration: 4mM): 1.019 ± 0.0017 | NP40-soluble protein abundance (concentration: 6mM): 0.997 ± 0.015 | NP40-soluble protein abundance (concentration: 8mM): 0.995 ± 0.036 | NP40-soluble protein abundance (concentration: 10mM): 1.03 ± 0.029

E7EPP6 and related entries (UniProt O14757)
NP40-soluble protein abundance (concentration: 1mM): 0.986 ± 0.0096 | NP40-soluble protein abundance (concentration: 2mM): 0.9479 ± 0.0067 | NP40-soluble protein abundance (concentration: 4mM): 0.985 ± 0.049 | NP40-soluble protein abundance (concentration: 6mM): 0.942 ± 0.036 | NP40-soluble protein abundance (concentration: 8mM): 0.962 ± 0.04 | NP40-soluble protein abundance (concentration: 10mM): 0.934 ± 0.054

E9PGT1 and related entries (UniProt Q15631)
NP40-soluble protein abundance (concentration: 1mM): 0.975 ± 0.049 | NP40-soluble protein abundance (concentration: 2mM): 0.951 ± 0.028 | NP40-soluble protein abundance (concentration: 4mM): 0.944 ± 0.048 | NP40-soluble protein abundance (concentration: 6mM): 0.974 ± 0.082 | NP40-soluble protein abundance (concentration: 8mM): 1.02 ± 0.059 | NP40-soluble protein abundance (concentration: 10mM): 0.993 ± 0.056

F8VYC4 and related entries (UniProt P0DJD1+P0DJD0+F8VYC4)
NP40-soluble protein abundance (concentration: 1mM): 1.014 ± 0.0075 | NP40-soluble protein abundance (concentration: 2mM): 1.04 ± 0.025 | NP40-soluble protein abundance (concentration: 4mM): 0.984 ± 0.026 | NP40-soluble protein abundance (concentration: 6mM): 0.997 ± 0.011 | NP40-soluble protein abundance (concentration: 8mM): 0.986 ± 0.02 | NP40-soluble protein abundance (concentration: 10mM): 1.005 ± 0.0089

E9PBS1 and related entries (UniProt P22234)
NP40-soluble protein abundance (concentration: 1mM): 0.991 ± 0.025 | NP40-soluble protein abundance (concentration: 2mM): 0.943 ± 0.018 | NP40-soluble protein abundance (concentration: 4mM): 0.961 ± 0.033 | NP40-soluble protein abundance (concentration: 6mM): 0.981 ± 0.022 | NP40-soluble protein abundance (concentration: 8mM): 0.994 ± 0.011 | NP40-soluble protein abundance (concentration: 10mM): 0.949 ± 0.022
